In patent US7763234B2 (GE Healthcare AS, priority 2005, dated 2010):

Legend:
[1] = general procedure: Fmoc solid-phase peptide synthesis; Fmoc-Leu-SASRIN resin; HBTU; conditions: whole synthesis; for crude mass: scale 0.05 mmol
[2] = general procedure: Fmoc solid-phase peptide synthesis; TentaGel Sac Leu-Fmoc resin; HBTU; conditions: whole synthesis, scale 0.05 mmol

Row | Substance | crude mass [1] | other results
1 | N-cPn216-Gly-Arg-Val-Tyr-Ile-His-Pro-Bip-His-Leu-OH | 90 mg | 
2 | N-cPn216-Gly-Arg-Val-Tyr-Ile-His-Pro-Hph-His-Leu-OH |  | crude mass [2]: 24 mg
3 | N-cPn216-Gly-Arg-Val-Tyr-Ile-His-Pro-Ile-His-Leu-OH | 70 mg | 
4 | cPn216-Gly-Arg-Val-Tyr-Ile-His-Pro-Phe-His-Leu-OH |  | isolated mass ([1]; scale 0.1 mmol): 3 mg
